Reference: publication PMC11414381
Results are given in words; binding and its absence hold for the method and conditions named. In cells and extracts the contact can be indirect. Some entries that bind do so weakly or less than the wild type.

By UniProt entry, the sequences of proteins in these tests, tags left out.
UniProt P05412: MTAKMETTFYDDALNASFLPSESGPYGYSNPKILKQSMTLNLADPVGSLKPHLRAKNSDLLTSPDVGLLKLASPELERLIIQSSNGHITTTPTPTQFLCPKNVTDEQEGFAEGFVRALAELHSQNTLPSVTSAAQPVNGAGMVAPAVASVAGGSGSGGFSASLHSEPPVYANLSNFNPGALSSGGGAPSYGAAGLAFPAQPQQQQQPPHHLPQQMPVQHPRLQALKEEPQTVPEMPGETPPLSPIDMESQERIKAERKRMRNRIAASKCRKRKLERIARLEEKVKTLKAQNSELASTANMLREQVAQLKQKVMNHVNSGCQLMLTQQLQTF

Target: T1, SIX4 (sine oculis homeobox homolog 4) (UniProt Q9UIU6)
T1 sequence: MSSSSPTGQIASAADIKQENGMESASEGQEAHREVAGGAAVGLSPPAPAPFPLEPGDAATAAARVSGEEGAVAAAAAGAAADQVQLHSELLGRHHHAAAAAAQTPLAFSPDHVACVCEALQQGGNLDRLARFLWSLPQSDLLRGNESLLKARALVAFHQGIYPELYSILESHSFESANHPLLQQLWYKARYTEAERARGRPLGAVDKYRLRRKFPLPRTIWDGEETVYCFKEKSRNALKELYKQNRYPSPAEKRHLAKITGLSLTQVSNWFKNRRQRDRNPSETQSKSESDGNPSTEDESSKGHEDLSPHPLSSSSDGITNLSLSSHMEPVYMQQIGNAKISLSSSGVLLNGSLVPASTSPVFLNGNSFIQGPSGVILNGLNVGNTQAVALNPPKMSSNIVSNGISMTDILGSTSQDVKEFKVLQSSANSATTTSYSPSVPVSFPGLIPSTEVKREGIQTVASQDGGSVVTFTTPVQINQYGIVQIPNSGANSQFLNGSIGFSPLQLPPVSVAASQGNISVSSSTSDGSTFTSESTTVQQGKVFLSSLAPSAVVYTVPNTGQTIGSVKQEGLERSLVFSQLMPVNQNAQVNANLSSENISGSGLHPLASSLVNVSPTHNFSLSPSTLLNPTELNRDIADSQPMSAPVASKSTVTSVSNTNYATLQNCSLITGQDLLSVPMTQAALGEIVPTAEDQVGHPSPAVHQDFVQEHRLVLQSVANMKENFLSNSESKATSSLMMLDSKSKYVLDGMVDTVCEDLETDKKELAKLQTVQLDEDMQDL
Test: co-IP; cell lysates (immunoprecipitation lysis buffer) with specific antibodies or normal IgG (20 ug/mL) at 4 °C overnight; protein A/G magnetic beads 30 min at RT; five washes in 50 mM Tris, 150 mM NaCl, 0.2% Triton X-100, 0.2% Tween, pH 7.5; immunoblotting; input diluted 1/10

binding: binds
Substance: C-JUN (from UniProt P05412 1-331)
